# Publication PMC12431657, “Discovery and mechanistic insights of dibenzoylmethane as a broad spectrum inhibitor of coronavirus” (PLOS Pathogens, 2025)
# About 95 (3%) of roughly 3,300 compounds showed an effect of 50% or more. The list shows a part of the results. Peptide text beside a SMILES is read from it.
# Test system: HCoV-229E
# Set-up: species or system Huh-7; HTS, protection from HCoV-229E induced cell death, luminescent cell viability (CellCounting-Lite 2.0), inhibition rate
# Conditions: 24 h post infection, 1 h compound pre-incubation; 10 µM; inhibitor
row,Structure (SMILES),229E Inhibition rate
1,O=C(O)CCCC(=O)C(=O)O [Oxoadipic acid],7%
2,O=C(O)c1ccc(CO)o1 [5-Hydroxymethyl-2-furancarboxylic acid],0%
3,O=C(O)C1CCCCN1O (centres unmarked) [N-Hydroxypipecolic acid],19%
4,C[C@H](CC[C@@H](O[C@@H]1O[C@H](CO)[C@@H](O)[C@H](O)[C@H]1O)C(C)(C)O)[C@H]1CC[C@@]2(C)[C@@H]3CC=C4[C@@H](CC[C@H](O[C@@H]5O[C@H](CO)[C@@H](O)[C@H](O)[C@H]5O)C4(C)C)[C@]3(C)[C@H](O)C[C@]12C [Mogroside IIe],17.6%
5,O=C1CCCCO1 [Tetrahydro-2H-pyran-2-one],36.9%
6,COc1cc(/C=C/C(=O)CC(=O)/C=C/c2ccc(O)c(OC)c2)ccc1O [Curcumin],26.3%
7,C[C@@H]1O[C@@H](O[C@H]2[C@H](Oc3c(-c4ccc(O)cc4)oc4cc(O)cc(O)c4c3=O)O[C@H](CO)[C@@H](O)[C@@H]2O)[C@H](O)[C@H](O)[C@H]1O [Kaempferol 3-neohesperidoside],17.2%
8,CC1(C)CC[C@]2(C(=O)O)CC[C@]3(C)C(=CC[C@@H]4[C@@]5(C)C[C@H](O)[C@H](O)[C@@](C)(C(=O)O)[C@@H]5CC[C@]43C)[C@@H]2C1 [Medicagenic acid],4.3%
9,C/C=C/c1ccc(OC)c(OC)c1 [Methyl isoeugenol],21.2%
10,CC(=O)O[C@@]12CO[C@@H]1C[C@@H](O)[C@@]1(C)C(=O)[C@H](O)C3=C(C)[C@@H](OC(=O)[C@H](O)[C@@H](NC(=O)c4ccccc4)c4ccccc4)C[C@@](O)([C@@H](OC(=O)c4ccccc4)[C@H]21)C3(C)C [7-Epi 10-desacetyl paclitaxel],21.4%
11,COc1c(O)c2c(=O)cc(OC)c3c4c(OC)cc(=O)c5c(O)c(OC)c6c(c(c1CC(C)=C6C(C)=O)c23)c54 [Hypocrellin B],1.2%
12,C/C(=C\CC[C@@H](C)[C@H]1CC[C@@]2(C)C3=CC[C@H]4C(C)(C)[C@@H](O)CC[C@]4(C)C3=CC[C@]12C)CO [Ganoderol B],7.7%
13,NCC(=O)N[C@@H](Cc1ccc(O)cc1)C(=O)O [Glycyl-L-tyrosine] (H-Gly-Tyr-OH),6.3%
14,Cc1nc2n(c(=O)c1CCN1CCC(c3noc4cc(F)ccc34)CC1)CCCC2O (centres unmarked) [Paliperidone],0%
15,CCCCC/C=C\C/C=C\CCCCCCCC(=O)O[C@H]1CC[C@@]2(C)C(=CC[C@H]3[C@@H]4CC[C@H]([C@H](C)CCCC(C)C)[C@@]4(C)CC[C@@H]32)C1 [Cholesteryl linoleate],19.1%
16,C=CCCCCCCCCC(=O)O [10-Undecenoic acid],16.2%
17,COc1ccc(CC(=O)O)cc1 [2-(4-Methoxyphenyl)acetic acid],0%
18,C=C1C(=O)[C@@]23[C@H](O)C[C@@H]4C(C)(C)CC[C@H](O)[C@@]4(CO)[C@@H]2CC[C@@H]1[C@H]3O [Kamebakaurin],0%
19,COc1c(O)cc2oc3cc(O)c(CC=C(C)C)c(O)c3c(=O)c2c1CC=C(C)C [alpha-Mangostin],42.5%

# Two of the compounds above, with bars between the fields:
row | Structure (SMILES) | 229E Inhibition rate
5 | O=C1CCCCO1 [Tetrahydro-2H-pyran-2-one] | 36.9%
6 | COc1cc(/C=C/C(=O)CC(=O)/C=C/c2ccc(O)c(OC)c2)ccc1O [Curcumin] | 26.3%

# (list continues)

row,Structure (SMILES),229E Inhibition rate
1,Cc1cccc(CC(=O)O)c1 [m-Tolylacetic acid],18.9%
2,C[C@H](CCC(=O)NCCS(=O)(=O)O)[C@H]1CC[C@H]2[C@@H]3[C@@H](O)C[C@@H]4C[C@H](O)CC[C@]4(C)[C@H]3CC[C@]12C [Tauroursodeoxycholate],17.1%
3,COc1ccc([C@@H]2CC(=O)c3c(O)cc(O[C@@H]4O[C@H](CO[C@@H]5O[C@@H](C)[C@H](O)[C@@H](O)[C@H]5O)[C@@H](O)[C@H](O)[C@H]4O)cc3O2)cc1OC [Methyl-Hesperidin],34.1%
4,CCOc1ccc2ccc(=O)oc2c1 [7-Ethoxycoumarin],16.8%
5,O=C1c2c(O)cc(O)cc2O[C@H](c2cc(O)c(O)c(O)c2)[C@H]1O [Dihydromyricetin],0%
6,"Oc1cc2cc[nH]c2cc1O [5,6-Dihydroxyindole]",1.6%
7,CC1=CCC(C(C)C)=CC1 [γ-Terpinene],7.7%
8,O=C(O[C@@H]1Cc2c(O)cc(O)cc2O[C@H]1c1cc(O)c(O)c(O)c1)c1cc(O)c(O)c(O)c1 [(-)-Gallocatechin gallate],11%
9,C=C(CO)C(=O)O[C@H]1CC(=C)[C@@H]2C[C@H](O)C(=C)[C@@H]2[C@H]2OC(=O)C(=C)[C@@H]21 [Cynaropicrin],8.5%
10,OC[C@H]1O[C@@H](Oc2ccc3c(c2)OC[C@H]2c4cc5c(cc4O[C@@H]32)OCO5)[C@H](O)[C@@H](O)[C@@H]1O [Trifolirhizin],10.7%
11,COc1ccc(C(=O)O)cc1OC [Veratric acid],18%
12,C[C@H]1[C@H](OC(=O)CCC(=O)O)O[C@@H]2O[C@@]3(C)CC[C@H]4[C@H](C)CC[C@@H]1[C@@]24OO3 [Artesunate],4.1%
13,CCCCCCCCCCCCOC(=O)CS(=O)(=O)O [Sodium lauryl sulfoacetate],17.1%
14,Cc1c(O)c(C)c2c(c1O)C(=O)[C@H](Cc1ccc3c(c1)OCO3)CO2 [Methylophiopogonanone A],21.6%
15,COC(=O)/C=C/c1ccccc1 [Methyl cinnamate],15%
16,O=C(O)c1ccc(C(=O)O)cc1 [Terephthalic acid],10.1%
17,COc1ccc(O)c(C(=O)O)c1 [5-Methoxysalicylic acid],11.2%
18,COc1ccc(CCO[C@@H]2O[C@H](CO[C@@H]3O[C@H](CO)[C@H](O)[C@H](O)[C@H]3O)[C@@H](OC(=O)/C=C/c3ccc(O)c(OC)c3)[C@H](O[C@@H]3O[C@@H](C)[C@H](O)[C@@H](O)[C@H]3O)[C@H]2O)cc1O [Jionoside B1],0%
19,CC(C)=CCC/C(C)=C/Cc1c(O)c(CC=C(C)C)c2c(c1O)C(=O)C1=C[C@@H]3C[C@H]4C(C)(C)O[C@@](C/C=C(/C)C(=O)O)(C3=O)[C@@]14O2 [Gambogenic acid],1.1%
